Experimental data as given in article PMC7862700.
The other results are listed elsewhere or left out. The exact form of the protein is not confirmed.

Target: T1, ETS1 (UniProt P14921)
T1 sequence: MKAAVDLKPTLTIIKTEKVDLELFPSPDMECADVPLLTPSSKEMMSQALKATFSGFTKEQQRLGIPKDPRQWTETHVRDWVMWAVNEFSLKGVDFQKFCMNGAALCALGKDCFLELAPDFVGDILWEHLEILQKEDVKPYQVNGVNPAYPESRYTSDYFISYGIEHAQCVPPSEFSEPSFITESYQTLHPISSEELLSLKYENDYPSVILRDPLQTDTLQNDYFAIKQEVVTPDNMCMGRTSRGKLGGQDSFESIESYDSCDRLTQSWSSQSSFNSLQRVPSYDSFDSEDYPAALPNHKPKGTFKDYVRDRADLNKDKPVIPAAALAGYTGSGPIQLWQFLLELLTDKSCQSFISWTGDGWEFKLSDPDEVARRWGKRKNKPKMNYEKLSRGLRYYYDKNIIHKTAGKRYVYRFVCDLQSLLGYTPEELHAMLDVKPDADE
Assay: DAPPL (digital affinity profiling via proximity ligation, sequencing)
Conditions: 10 mM Tris-HCl pH 7.5, 50 mM NaCl, 1 mM DTT, 4% glycerol, room temperature, 30 min; GST-TFs on glutathione beads, 16-mer random dsDNA library, 0.1% …; high values mean tight binding; double strand, one strand shown; scale: fold enrichment (6-mer frequency, TF over GST control)

Row | Sequence | binding signal
1 | CTCAAC | 1.28
2 | ACTCCT | 1.59
3 | TGCTAC | 1.31
4 | CTGTTT | 1.33
5 | TAGTAC | 1.17
6 | TCGACC | 1.4
7 | CGCGTC | 1.13
8 | CTACGA | 1.2
9 | TTGACC | 1.49
10 | TGCCCG | 1.05
11 | CGCCCG | 1.14
12 | CCCGCA | 1.26
13 | CCTGCA | 1.24
14 | TGTTTG | 1.19
15 | TTCTTC | 1.94
16 | AACAGG | 1.2
17 | CTGCCG | 1.33
18 | AAGAAT | 1.15
19 | CGTAAT | 1.21
20 | CTTTTA | 1.3

Row | Sequence | binding signal
21 | CGTCTC | 1.58
22 | CTCCGC | 1.39
23 | ATCTAG | 1.1
24 | TTTCTC | 1.68
25 | GATCCT | 1.32
26 | CTGCCA | 1.05
27 | TTGACA | 1.34
28 | TACTGA | 1.2
29 | CCAAAA | 1.32
30 | CCCGTT | 1.13
31 | CGGCTT | 1.24
32 | GCAAAA | 1.11
33 | TCACGA | 1.2
34 | ATCTCG | 1.41
35 | GCTGAA | 1.11
36 | ATCTAA | 1.2
37 | AACTCG | 1.4
38 | GTTCTT | 1.23
39 | GATATC | 1.53

Looked up above:
For binding signal, GATCCT has the entry 1.32
For binding signal, TAGTAC has the entry 1.17
For binding signal, TTTCTC has the entry 1.68
